Assay results from the supplement of paper PMC8728848.
The list shows a part of the results.

Assays:
Assay in all cases: glycan array binding signal (z-score within array); higher = stronger binding
Settings in all cases: glycan notation: IUPAC condensed, linker removed
[1] = molecular target: Neu5Ac(a2-3)Gal(b1-4)GlcNAc(b1-6)GalNAc
How it was run: (§1)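 The binding signal is a Z-score computed within each array. Data were drawn from 3228 arrays in the Consortium for Functional Glycomics database, restricted to those with a known protein sequence. Scores were averaged over arrays of the same protein sequence at different concentrations or buffers, and over linkers, and negative values can be taken as non-binding.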

[2] = molecular target: Neu5Ac(a2-3)Gal(b1-4)GlcNAc(b1-6)[Gal(b1-3)]GalNAc
How it was run: as §1

[3] = molecular target: Neu5Ac(a2-3)Gal(b1-4)GlcNAc(b1-6)[Neu5Ac(a2-3)Gal(b1-3)]GalNAc
How it was run: as §1

[4] = molecular target: Neu5Ac(a2-3)Gal(b1-4)GlcNAc6S
How it was run: as §1

[5] = molecular target: Neu5Ac(a2-3)Gal(b1-4)[Fuc(a1-3)]GlcNAc
How it was run: as §1

[6] = molecular target: Neu5Ac(a2-3)Gal(b1-4)[Fuc(a1-3)]GlcNAc(b1-2)Man
How it was run: as §1

[7] = molecular target: Neu5Ac(a2-3)Gal(b1-4)[Fuc(a1-3)]GlcNAc(b1-3)Gal
How it was run: as §1

[8] = molecular target: Neu5Ac(a2-3)Gal(b1-4)[Fuc(a1-3)]GlcNAc(b1-3)Gal(b1-4)GlcNAc
How it was run: as §1

[9] = molecular target: Neu5Ac(a2-3)Gal(b1-4)[Fuc(a1-3)]GlcNAc(b1-3)Gal(b1-4)[Fuc(a1-3)]GlcNAc(b1-3)Gal(b1-4)[Fuc(a1-3)]GlcNAc
How it was run: as §1

[10] = molecular target: Neu5Ac(a2-3)Gal(b1-4)[Fuc(a1-3)]GlcNAc(b1-3)GalNAc
How it was run: as §1

[11] = molecular target: Neu5Ac(a2-3)Gal(b1-4)[Fuc(a1-3)]GlcNAc(b1-6)[Gal(b1-3)]GalNAc
How it was run: as §1

[12] = molecular target: Neu5Ac(a2-3)Gal(b1-4)[Fuc(a1-3)]GlcNAc(b1-6)[Neu5Ac(a2-3)Gal(b1-3)]GalNAc
How it was run: as §1

[13] = molecular target: Neu5Ac(a2-3)Gal(b1-4)[Fuc(a1-3)]GlcNAc6S
How it was run: as §1

[14] = molecular target: Neu5Ac(a2-3)Gal6S(b1-4)GlcNAc
How it was run: as §1

[15] = molecular target: Neu5Ac(a2-3)Gal6S(b1-4)[Fuc(a1-3)]GlcNAc
How it was run: as §1

[16] = molecular target: Neu5Ac(a2-3)GalNAc
How it was run: as §1

[17] = molecular target: Neu5Ac(a2-3)GalNAc(b1-4)GlcNAc
How it was run: as §1

[18] = molecular target: Neu5Ac(a2-3)[GalNAc(b1-4)]Gal(b1-4)Glc
How it was run: as §1

[19] = molecular target: Neu5Ac(a2-3)[GalNAc(b1-4)]Gal(b1-4)GlcNAc
How it was run: as §1

[20] = molecular target: Neu5Ac(a2-3)[GalNAc(b1-4)]Gal(b1-4)GlcNAc(b1-3)GalNAc
How it was run: as §1

[21] = molecular target: Neu5Ac(a2-3)[Neu5Ac(a2-6)]GalNAc
How it was run: as §1

[22] = molecular target: Neu5Ac(a2-6)Gal
How it was run: as §1

[23] = molecular target: Neu5Ac(a2-6)Gal(b1-3)GlcNAc(b1-3)[Gal(b1-4)GlcNAc(b1-6)]Gal(b1-4)Glc
How it was run: as §1

[24] = molecular target: Neu5Ac(a2-6)Gal(b1-4)Glc
How it was run: as §1

[25] = molecular target: Neu5Ac(a2-6)Gal(b1-4)GlcNAc
How it was run: as §1

[26] = molecular target: Neu5Ac(a2-6)Gal(b1-4)GlcNAc(b1-2)Man
How it was run: as §1

[27] = molecular target: Neu5Ac(a2-6)Gal(b1-4)GlcNAc(b1-2)Man(a1-3)Man(b1-4)GlcNAc(b1-4)GlcNAc
How it was run: as §1

[28] = molecular target: Neu5Ac(a2-6)Gal(b1-4)GlcNAc(b1-2)Man(a1-3)[Gal(b1-4)GlcNAc(b1-2)Man(a1-6)]Man(b1-4)GlcNAc(b1-4)GlcNAc
How it was run: as §1

[29] = molecular target: Neu5Ac(a2-6)Gal(b1-4)GlcNAc(b1-2)Man(a1-3)[GlcNAc(b1-2)Man(a1-6)]Man(b1-4)GlcNAc(b1-4)GlcNAc
How it was run: as §1

[30] = molecular target: Neu5Ac(a2-6)Gal(b1-4)GlcNAc(b1-2)Man(a1-3)[GlcNAc(b1-4)][Neu5Ac(a2-6)Gal(b1-4)GlcNAc(b1-2)Man(a1-6)]Man(b1-4)GlcNAc(b1-4)GlcNAc
How it was run: as §1

[31] = molecular target: Neu5Ac(a2-6)Gal(b1-4)GlcNAc(b1-2)Man(a1-3)[Man(a1-6)]Man(b1-4)GlcNAc(b1-4)GlcNAc
How it was run: as §1

B1: SJCP1531 (Schistosoma japonicum) (protein)
chain: MFKVRIINLVNISTVLLLINLLQTKSQVNVEQLVTVLEVNIKAQLKNKTTEVLVEWNPLYQDNSMPEYRKLLDETCKLFLPFVNEKVPPSTYGGECTNANFSEAPQDGSYSRVNAELRLIYKYSDNPQIQTDRLQDDLNDREEFITSESSFVAYNPKFTVKIEKLFIPISESQTTPPPTTAKNDASKKDDDDNGGEDSKAPIDTFAMTASGNKGKKDDDDNGGEDSKAPIDTFAMTASGSKDERSTWTIIGIITLVVLIFVVIGGGITVFVKRC
- glycan array binding signal (z-score) [1]: -0.685
- glycan array binding signal (z-score) [2]: 0.638
- glycan array binding signal (z-score) [3]: -0.574
- glycan array binding signal (z-score) [4]: 0.004
- glycan array binding signal (z-score) [5]: -0.336
- glycan array binding signal (z-score) [6]: -0.84
- glycan array binding signal (z-score) [7]: -0.914
- glycan array binding signal (z-score) [8]: -1.08
- glycan array binding signal (z-score) [9]: 1.85
- glycan array binding signal (z-score) [10]: 2.04
- glycan array binding signal (z-score) [11]: 1.01
- glycan array binding signal (z-score) [12]: -0.034
- glycan array binding signal (z-score) [13]: -0.06
- glycan array binding signal (z-score) [14]: 0.498
- glycan array binding signal (z-score) [15]: -1.33
- glycan array binding signal (z-score) [16]: 1.74
- glycan array binding signal (z-score) [17]: 0.66
- glycan array binding signal (z-score) [18]: 0.462
- glycan array binding signal (z-score) [19]: -1.06
- glycan array binding signal (z-score) [20]: 0.971
- glycan array binding signal (z-score) [21]: 0.103
- glycan array binding signal (z-score) [22]: -0.277
- glycan array binding signal (z-score) [23]: -0.834
- glycan array binding signal (z-score) [24]: -1.21
- glycan array binding signal (z-score) [25]: -0.219
- glycan array binding signal (z-score) [26]: 0.253
- glycan array binding signal (z-score) [27]: 1.23
- glycan array binding signal (z-score) [28]: -0.959
- glycan array binding signal (z-score) [29]: -0.354
- glycan array binding signal (z-score) [30]: 0.333
- glycan array binding signal (z-score) [31]: -0.373
